Two substances from PMC5055951 can be followed below.

The chains behind the UniProt entries cited, without tags or fusion partners.
UniProt Q12791: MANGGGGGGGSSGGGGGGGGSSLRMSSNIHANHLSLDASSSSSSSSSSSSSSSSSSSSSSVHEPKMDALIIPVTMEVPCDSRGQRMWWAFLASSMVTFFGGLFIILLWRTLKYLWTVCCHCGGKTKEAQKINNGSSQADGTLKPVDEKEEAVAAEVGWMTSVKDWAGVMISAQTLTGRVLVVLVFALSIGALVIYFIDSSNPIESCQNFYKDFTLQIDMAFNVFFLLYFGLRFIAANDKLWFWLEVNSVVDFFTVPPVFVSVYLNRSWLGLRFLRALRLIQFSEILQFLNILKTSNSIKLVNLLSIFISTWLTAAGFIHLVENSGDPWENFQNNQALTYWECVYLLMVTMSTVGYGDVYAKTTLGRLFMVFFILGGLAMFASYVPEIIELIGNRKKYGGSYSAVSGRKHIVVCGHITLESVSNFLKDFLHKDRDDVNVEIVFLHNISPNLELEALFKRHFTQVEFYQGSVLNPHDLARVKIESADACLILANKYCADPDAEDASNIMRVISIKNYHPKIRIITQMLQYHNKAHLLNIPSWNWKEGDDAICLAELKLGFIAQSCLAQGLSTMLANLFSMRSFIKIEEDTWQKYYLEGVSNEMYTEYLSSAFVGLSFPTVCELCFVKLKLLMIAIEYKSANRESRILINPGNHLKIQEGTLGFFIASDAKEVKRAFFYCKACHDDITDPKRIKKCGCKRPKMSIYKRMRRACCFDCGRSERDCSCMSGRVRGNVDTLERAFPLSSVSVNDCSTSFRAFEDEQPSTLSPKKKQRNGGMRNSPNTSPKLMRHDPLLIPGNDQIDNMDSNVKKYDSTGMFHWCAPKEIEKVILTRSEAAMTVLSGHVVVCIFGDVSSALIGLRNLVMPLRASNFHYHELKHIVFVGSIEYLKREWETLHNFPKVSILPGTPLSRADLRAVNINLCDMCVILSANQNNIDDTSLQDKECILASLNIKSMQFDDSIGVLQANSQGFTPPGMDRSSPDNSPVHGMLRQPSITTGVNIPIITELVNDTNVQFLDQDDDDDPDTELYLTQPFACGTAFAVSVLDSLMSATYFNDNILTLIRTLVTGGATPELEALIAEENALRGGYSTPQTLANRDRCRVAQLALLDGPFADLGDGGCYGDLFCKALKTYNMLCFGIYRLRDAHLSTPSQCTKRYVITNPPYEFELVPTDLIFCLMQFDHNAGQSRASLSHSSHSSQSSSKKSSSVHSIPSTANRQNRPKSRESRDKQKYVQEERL
UniProt P08758: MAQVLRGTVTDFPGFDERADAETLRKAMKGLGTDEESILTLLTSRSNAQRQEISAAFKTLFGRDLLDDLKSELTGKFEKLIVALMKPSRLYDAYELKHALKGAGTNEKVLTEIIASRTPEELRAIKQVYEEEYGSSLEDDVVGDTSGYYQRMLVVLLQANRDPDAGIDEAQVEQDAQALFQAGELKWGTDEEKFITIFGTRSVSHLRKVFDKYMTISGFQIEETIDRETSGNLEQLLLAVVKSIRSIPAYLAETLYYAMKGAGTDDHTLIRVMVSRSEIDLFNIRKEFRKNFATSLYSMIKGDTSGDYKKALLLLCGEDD

These are yes or no findings as the source states them, for the method shown. In cells and extracts the contact can be indirect. Some entries that bind do so weakly or less than the wild type.

The target of assay [1] is α subunit of the large conductance, voltage- and Ca2+-activated potassium channel (BKCa α) (human) (UniProt Q12791). The assay can be described thus: co-IP; reciprocal: anti-BKCa α or anti-ANXA5 antibody on Protein G Dynabeads, precleared RIPA lysate of HEK 293 cells, 1 h at room temperature, washed 3 times in PBS, eluted with 0.1 M citrate pH 2-3, western blot; bead control without antibody. (A western blot detects proteins with antibodies after separation by electrophoresis.)

Assay [2] addresses annexin A5 (ANXA5) (human (endogenous in HEK 293)) (UniProt P08758). The description is as above.

Take “annexin A5 (ANXA5) (from UniProt P08758 1-320)”: the binding result in assay [1] is given as “binds”. In the case of “α subunit of the large conductance, voltage- and Ca2+-activated potassium channel (BKCa α) (from UniProt Q12791 1-1236)”, the binding result in assay [2] was “binds”.
